Results are given in words; binding and its absence hold for the method and conditions named. In cells and extracts the contact can be indirect. A yes stands for co-enrichment or nearness to the bait. Other partners may have been found.
Molecular target: programmed cell death ligand 1 (PD-L1) (human (endogenous in SGC-7901)) (UniProt Q9NZQ7)
Assay: affinity purification with mass spectrometry; IP with anti-PD-L1 antibody (IgG as control) from SGC-7901 RIPA lysate, protein A/G PLUS-Agarose, 4°C; coprecipitated 175 kDa protein band analysed by mass spectrometry

Amino acid sequences for entries named in this document (tags omitted). Residues count along the entry.
UniProt Q9NZQ7, residues 19-290: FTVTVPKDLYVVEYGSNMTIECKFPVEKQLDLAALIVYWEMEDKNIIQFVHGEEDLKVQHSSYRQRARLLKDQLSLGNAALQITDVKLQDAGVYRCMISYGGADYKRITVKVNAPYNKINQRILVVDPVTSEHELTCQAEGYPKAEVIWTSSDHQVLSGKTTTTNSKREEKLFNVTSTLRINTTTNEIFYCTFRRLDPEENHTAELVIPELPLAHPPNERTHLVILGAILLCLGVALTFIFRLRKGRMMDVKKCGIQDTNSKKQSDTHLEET

B1: CCCTC-binding factor (CTCF) (protein, UniProt P49711 1-727)
chain: MEGDAVEAIVEESETFIKGKERKTYQRRREGGQEEDACHLPQNQTDGGEVVQDVNSSVQMVMMEQLDPTLLQMKTEVMEGTVAPEAEAAVDDTQIITLQVVNMEEQPINIGELQLVQVPVPVTVPVATTSVEELQGAYENEVSKEGLAESEPMICHTLPLPEGFQVVKVGANGEVETLEQGELPPQEDPSWQKDPDYQPPAKKTKKTKKSKLRYTEEGKDVDVSVYDFEEEQQEGLLSEVNAEKVVGNMKPPKPTKIKKKGVKKTFQCELCSYTCPRRSNLDRHMKSHTDERPHKCHLCGRAFRTVTLLRNHLNTHTGTRPHKCPDCDMAFVTSGELVRHRRYKHTHEKPFKCSMCDYASVEVSKLKRHIRSHTGERPFQCSLCSYASRDTYKLKRHMRTHSGEKPYECYICHARFTQSGTMKMHILQKHTENVAKFHCPHCDTVIARKSDLGVHLRKQHSYIEQGKKCRYCDAVFHERYALIQHQKSHKNEKRFKCDQCDYACRQERHMIMHKRTHTGEKPYACSHCDKTFRQKQLLDMHFKRYHDPNFVPAAFVCSKCGKTFTRRNTMARHADNCAGPDGVEGENGGETKKSKRGRKRKMRSKKEDSSDSENAEPDLDDNEDEEEPAVEIEPEPEPQPVTPAPPPAKKRRGRPPGRTNQPKQNQPTAIIQVEDQNTGAIENIIVEVKKEPDAEPAEGEEEEAQPAATDAPNGDLTPEMILSMMDR
binding: binds

— paper PMC7667687
